± gives the standard deviation of the averaged measurements. This is one part of the list.

In this assay the test system is APPdp1-6 iPSC-derived neurons. In words: pThr231Tau/total Tau ratio Z-score vs DMSO vehicle wells; higher = more pThr231Tau relative to total Tau. Conditions: 5 µM; treatment time 5 days.
Consider `O=C1CCc2ccc(OCCCCN3CCN(c4cccc(Cl)c4Cl)CC3)cc2N1` [Prestw-1229], for which the “pThr231Tau/total Tau ratio Z-score” value worked out at 1.37 ± 0.61.
To `COc1c2ccoc2cc2oc(=O)ccc12` belongs -0.194 ± 0.33; to `COC(=O)C1=C(C)NC(C)=C(C(=O)OCC(C)C)C1c1ccccc1[N+](=O)[O-]` (stereo not drawn) [Prestw-666], -0.482 ± 1.3.
Turning to `CC1=CC(=C(c2ccc(N)c(C)c2)c2ccc(N)c(C)c2)C=CC1=N`, the “pThr231Tau/total Tau ratio Z-score” value is -5.34 ± 1.3.
Next, `COC(=O)C1=C(C)NC(C)=C(C(=O)OCCN(C)Cc2ccccc2)C1c1cccc([N+](=O)[O-])c1` (stereo not drawn) [Prestw-383]: 0.707 ± 1.1; `C/C=C(/C)C(=O)O[C@H]1[C@H](OC(C)=O)[C@@]2(CO)C(CC1(C)C)C1=CCC3[C@@]4(C)CCC(O[C@@H]5O[C@H](C(=O)O)[C@@H](O[C@@H]6O[C@H](CO)[C@@H](O)[C@H](O)[C@H]6O)[C@H](O)[C@H]5O[C@@H]5O[C@H](CO)[C@@H](O)[C@H](O)[C@H]5O)[C@](C)(CO)C4CC[C@@]3(C)[C@]1(C)C[C@H]2O.C/C=C(\C)C(=O)O[C@H]1[C@H](OC(C)=O)[C@@]2(CO)C(CC1(C)C)C1=CCC3[C@@]4(C)CCC(O[C@@H]5O[C@H](C(=O)O)[C@@H](O[C@@H]6O[C@H](CO)[C@@H](O)[C@H](O)[C@H]6O)[C@H](O)[C@H]5O[C@@H]5O[C@H](CO)[C@@H](O)[C@H](O)[C@H]5O)[C@](C)(CO)C4CC[C@@]3(C)[C@]1(C)C[C@H]2O` (stereo partly drawn): -1.99 ± 0.31; `CN1CCN(c2c(F)cc3c(=O)c(C(=O)O)cn4c3c2SCC4)CC1` [Prestw-1338]: -0.444 ± 0.89.
To `CN1CCC[C@@H]1CCO[C@](C)(c1ccccc1)c1ccc(Cl)cc1` [Prestw-306] belongs 0.89 ± 3.2.
To `CCOc1ccc(NC(C)=O)cc1` [Prestw-533] belongs 0.429 ± 0.079.
As for `COc1cc2ncnc(Nc3ccc(F)c(Cl)c3)c2cc1OCCCN1CCOCC1` [Prestw-1270], the “pThr231Tau/total Tau ratio Z-score” value was -0.986 ± 1.3.
To `CC(C(=O)O)c1ccc(C(=O)c2cccs2)cc1` (stereo not drawn) [Prestw-816] belongs 0.451 ± 0.33; to `CCN1CCC[C@H]1CNC(=O)c1c(O)c(Cl)cc(Cl)c1OC` [Prestw-1325], -0.93 ± 1.2; to `O=C(O)c1ccccc1` [BENZOIC ACID, antifungal], -0.223 ± 0.51.
Next, `NCc1ccc(S(N)(=O)=O)cc1` [Prestw-166]: 0.471 ± 0.49; `CCc1oc2ccccc2c1C(=O)c1cc(Br)c(O)c(Br)c1` [Prestw-370]: -0.438 ± 0.4.
Next, `CC/C(=C(\c1ccccc1)c1ccc(OCCN(C)C)cc1)c1ccccc1` [Prestw-146]: -1.84 ± 0.47; `C#C[C@]1(O)CC[C@H]2[C@@H]3CCC4=C(CCC(=O)C4)[C@H]3CC[C@@]21C` [Prestw-24]: -0.678 ± 1.4.
Consider `CC[N+](CC)(CC)CCOc1cccc(OCC[N+](CC)(CC)CC)c1OCC[N+](CC)(CC)CC` [Prestw-157], for which the “pThr231Tau/total Tau ratio Z-score” value was 0.292 ± 0.11.

The record behind these values is the supplement of paper PMC6414424.
